Measurements as given in PubChem BioAssay AID540256 (National Center for Advancing Translational Sciences (NCATS), 2011).
About 3,700 (1.2%) of roughly 300,000 compounds were called active. This list was built around the results that the source calls inconclusive (neither active nor inactive); the mix of calls is not that of the screen. Calls follow the shape of the full dose curve; tested in HEK293 cells. Potencies of inconclusive entries are doubtful fits and often do not repeat.

Assay: qHTS for Inhibitors of binding or entry into cells for Lassa Virus; also: nearly all actives have a fitted effect of over 50% in size
Conditions: Lassa virus pseudotype entry inhibition, cell reporter; series mostly up to 37.9 µM
Potency is read from the fitted curve at half-maximal effect.

SMILES | Potency
CC1CCC(NC(=O)C2c3ccccc3C(=O)N2Cc2cccs2)CC1 (stereo not given) | active: 3.55 µM
COc1ccc(CNC2c3ccccc3-c3ccccc32)cc1OC | inconclusive: 1.41 µM [inhibitor, partial curve, poor fit]
O=C1CSC(=S)N1c1cccc(Br)c1 | inconclusive: 8.91 µM [inhibitor, partial curve, poor fit]
CC(SC#N)C(=O)C12CC3CC(CC(C3)C1)C2 (stereo not given) | inactive
Cc1cc(NC(=O)c2ccc(N(C)S(=O)(=O)c3ccccc3)cc2)no1 | inconclusive: 29.1 µM [inhibitor, single point]
Cc1cccc(C)c1NC(=O)Cn1c(=O)n(Cc2ccc3c(c2)OCO3)c(=O)c2oc3ccccc3c21 | inactive
CCCCc1ccc(NC(=O)NCc2ccccn2)cc1 | inconclusive: 35.5 µM [inhibitor, single point]
Cc1cc(C)cc(N(C(=O)c2ccccn2)C(C(=O)NC2CCCCC2)c2ccncc2)c1 (stereo not given) | inconclusive: 35.5 µM [inhibitor, partial curve, poor fit]
COc1ccc(NC(=O)Cn2ncc(Cl)c(Cl)c2=O)cc1S(=O)(=O)N1CCOCC1 | inconclusive: 14.1 µM [inhibitor, partial curve, poor fit]
Nc1c(C(=O)Nc2ccc(S(=O)(=O)N3CCCC3)cc2)sc2nc3cc4c(cc3cc12)CCC4 | inconclusive: 0.651 µM [activator, partial curve]
Cc1ccc2nc(-c3ccc(Br)o3)oc(=O)c2c1 | inactive
N/C(Cc1ccc(Cl)cc1Cl)=N\OC(=O)c1ccc(Br)o1 | inactive
COc1ccc(C(NC(=O)c2ccc(-c3ccccc3)cc2)c2ccccc2)cc1 (stereo not given) | inconclusive: 3.98 µM [inhibitor, single point]
Cc1sc2nc(SCC(=O)c3cccs3)n(Cc3ccco3)c(=O)c2c1C | inconclusive: 14.6 µM [inhibitor, partial curve, poor fit]
CCOC(=O)c1ccc(Nc2c(-c3cccc(O)c3)nc3nc[nH]n23)cc1 | inconclusive: 3.55 µM [inhibitor, partial curve, poor fit]
COc1cccc(C2SCC(=O)N2c2ccc(Cl)cc2)c1OC (stereo not given) | inactive
N#Cc1c(-n2ncnc2-c2ccccc2C(F)(F)F)sc2c1CCCCC2 | inconclusive: 8.91 µM [activator, partial curve, poor fit]
CCCN(CCC)C(=O)CSc1nc2n[nH]c(C)c2c(=N)n1-c1ccc(OC)cc1 | inconclusive: 12.6 µM [inhibitor, partial curve]
O=C(CSc1ccc(Br)cc1)Nc1cccc(S(=O)(=O)N2CCOCC2)c1 | inconclusive: 22.4 µM [inhibitor, single point]
CCCN(CCC)S(=O)(=O)c1ccc(C(=O)Nc2cccc(-c3nc4ccccc4[nH]3)c2)cc1 | inconclusive: 1.78 µM [inhibitor, partial curve, poor fit]

SMILES | Potency
Cc1ccc(C)c(NC(=O)c2ccc(S(=O)(=O)C(F)F)cc2)c1 | inconclusive: 1.12 µM [activator, full curve, poor fit]
CCN(CC)CCN(C(=O)c1ccco1)c1nc2cc(C)cc(C)c2s1 | inconclusive: 15.8 µM [inhibitor, single point]
CCCC(=O)NCc1cc(-c2nn(C)c(=O)c3ccccc23)ccc1C | inactive
CS(=O)(=O)n1nc(-c2ccc(Cl)cc2)nc1SCc1ccccc1 | inconclusive: 0.651 µM [inhibitor, full curve, poor fit]
CN(C(=O)CSc1nnc(-c2ccco2)n1C)C1CCCCC1 | inconclusive: 3.55 µM [activator, single point]
CN(Cc1c(C(=O)N(C)Cc2ccccc2)nc2ccccn12)CC1Cc2ccccc2O1 (stereo not given) | inconclusive: 17.8 µM [inhibitor, single point]
COc1ccc(CNC(=O)c2cccnc2Sc2ccc(C)c(C)c2)cc1 | inconclusive: 0.82 µM [inhibitor, full curve, poor fit]
Cc1cc(C)c2c(CC(=O)Nc3ccc(S(=O)(=O)N4CCCCC4)cc3)coc2c1 | inconclusive: 22.4 µM [inhibitor, single point]
CCN1C(=O)C(CC(=O)Nc2ccc(OC)cc2)N(CCc2ccccc2F)C1=S (stereo not given) | inconclusive: 20 µM [inhibitor, partial curve, poor fit]
COc1ccc2c(c1)C(=O)CCC2c1ccccc1 (stereo not given) | inactive
O=C(c1cc2ccccc2oc1=O)N1CCN(c2ccc(F)cc2)CC1 | inconclusive: 31.6 µM [activator, single point]
CCc1nc2c(c(=O)[nH]1)C(CC)(CC)Cc1ccccc1-2 | inconclusive: 0.794 µM [inhibitor, single point]
NC(=O)c1cc[n+](CC2=C(C(=O)O)N3C(=O)[C@@H](NC(=O)[C@@H](c4ccccc4)S(=O)(=O)[O-])[C@H]3SC2)cc1 | inconclusive: 0.0046 µM [inhibitor, full curve, poor fit]
COc1ccccc1/C=C/C=N/NC(=O)CC1C(=O)NN=C1C (stereo not given) | inconclusive: 6.31 µM [inhibitor, partial curve, poor fit]
Cn1c(N)c(C(=O)COC(=O)c2ccc(Cl)nc2)c(=O)n(C)c1=O | inconclusive: 3.16 µM [inhibitor, partial curve, poor fit]
O=c1c([N+](=O)[O-])cn(O)cc1[N+](=O)[O-] | inactive
CCc1ccc(NC(=O)N(CCCN2CCOCC2)C(C)c2cc3cccc(OC)c3o2)cc1 (stereo not given) | inconclusive: 10 µM [inhibitor, partial curve, poor fit]
COc1ccccc1CCNC(=O)Cc1c(C)c2cc3c(C)coc3cc2oc1=O | inactive
C[C@@H]1C=CCC(=O)N2[C@H](CC(=O)N[C@@H]1c1ccccc1)C[C@@H](C)[C@@H]2c1ccccc1 | inconclusive: 0.75 µM [activator, single point]
Cc1cc2c(N=NC(=O)C3CC3c3ccccc3)c(O)[nH]c2cc1Br (stereo not given) | inconclusive: 0.092 µM [inhibitor, full curve]

Another view of part of the listing above.
COc1ccc(CNC(=O)c2cccnc2Sc2ccc(C)c(C)c2)cc1
  Potency: inconclusive: 0.82 µM [inhibitor, full curve, poor fit]
Cc1cc(C)c2c(CC(=O)Nc3ccc(S(=O)(=O)N4CCCCC4)cc3)coc2c1
  Potency: inconclusive: 22.4 µM [inhibitor, single point]
